Measurements: the supplement of paper PMC6411743
± gives the standard deviation of the averaged measurements. This is one part of the list.

Sequences of proteins named here, by UniProt entry; tags and fusion partners are left off. A change or cut given only in a name is not applied to a line headed by its entry.
UniProt Q9ULW0, whole entry: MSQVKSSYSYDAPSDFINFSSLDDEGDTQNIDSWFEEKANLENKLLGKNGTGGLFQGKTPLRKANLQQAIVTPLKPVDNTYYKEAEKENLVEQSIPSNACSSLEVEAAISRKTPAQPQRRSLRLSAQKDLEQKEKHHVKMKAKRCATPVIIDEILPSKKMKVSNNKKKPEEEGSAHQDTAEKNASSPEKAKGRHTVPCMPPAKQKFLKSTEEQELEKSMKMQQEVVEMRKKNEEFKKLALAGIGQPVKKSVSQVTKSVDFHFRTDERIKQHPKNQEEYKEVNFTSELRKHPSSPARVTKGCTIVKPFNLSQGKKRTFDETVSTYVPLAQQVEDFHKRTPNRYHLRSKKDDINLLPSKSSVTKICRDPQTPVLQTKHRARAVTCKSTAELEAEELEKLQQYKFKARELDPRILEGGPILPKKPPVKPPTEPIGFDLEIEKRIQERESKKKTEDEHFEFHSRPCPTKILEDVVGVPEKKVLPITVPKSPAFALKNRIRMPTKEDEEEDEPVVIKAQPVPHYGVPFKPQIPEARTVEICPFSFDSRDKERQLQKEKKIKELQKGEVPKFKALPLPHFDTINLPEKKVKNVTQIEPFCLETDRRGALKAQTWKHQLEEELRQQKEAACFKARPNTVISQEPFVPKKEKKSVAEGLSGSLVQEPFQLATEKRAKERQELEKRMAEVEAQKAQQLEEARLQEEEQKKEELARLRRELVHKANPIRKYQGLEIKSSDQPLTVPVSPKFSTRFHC
UniProt Q9NZJ4: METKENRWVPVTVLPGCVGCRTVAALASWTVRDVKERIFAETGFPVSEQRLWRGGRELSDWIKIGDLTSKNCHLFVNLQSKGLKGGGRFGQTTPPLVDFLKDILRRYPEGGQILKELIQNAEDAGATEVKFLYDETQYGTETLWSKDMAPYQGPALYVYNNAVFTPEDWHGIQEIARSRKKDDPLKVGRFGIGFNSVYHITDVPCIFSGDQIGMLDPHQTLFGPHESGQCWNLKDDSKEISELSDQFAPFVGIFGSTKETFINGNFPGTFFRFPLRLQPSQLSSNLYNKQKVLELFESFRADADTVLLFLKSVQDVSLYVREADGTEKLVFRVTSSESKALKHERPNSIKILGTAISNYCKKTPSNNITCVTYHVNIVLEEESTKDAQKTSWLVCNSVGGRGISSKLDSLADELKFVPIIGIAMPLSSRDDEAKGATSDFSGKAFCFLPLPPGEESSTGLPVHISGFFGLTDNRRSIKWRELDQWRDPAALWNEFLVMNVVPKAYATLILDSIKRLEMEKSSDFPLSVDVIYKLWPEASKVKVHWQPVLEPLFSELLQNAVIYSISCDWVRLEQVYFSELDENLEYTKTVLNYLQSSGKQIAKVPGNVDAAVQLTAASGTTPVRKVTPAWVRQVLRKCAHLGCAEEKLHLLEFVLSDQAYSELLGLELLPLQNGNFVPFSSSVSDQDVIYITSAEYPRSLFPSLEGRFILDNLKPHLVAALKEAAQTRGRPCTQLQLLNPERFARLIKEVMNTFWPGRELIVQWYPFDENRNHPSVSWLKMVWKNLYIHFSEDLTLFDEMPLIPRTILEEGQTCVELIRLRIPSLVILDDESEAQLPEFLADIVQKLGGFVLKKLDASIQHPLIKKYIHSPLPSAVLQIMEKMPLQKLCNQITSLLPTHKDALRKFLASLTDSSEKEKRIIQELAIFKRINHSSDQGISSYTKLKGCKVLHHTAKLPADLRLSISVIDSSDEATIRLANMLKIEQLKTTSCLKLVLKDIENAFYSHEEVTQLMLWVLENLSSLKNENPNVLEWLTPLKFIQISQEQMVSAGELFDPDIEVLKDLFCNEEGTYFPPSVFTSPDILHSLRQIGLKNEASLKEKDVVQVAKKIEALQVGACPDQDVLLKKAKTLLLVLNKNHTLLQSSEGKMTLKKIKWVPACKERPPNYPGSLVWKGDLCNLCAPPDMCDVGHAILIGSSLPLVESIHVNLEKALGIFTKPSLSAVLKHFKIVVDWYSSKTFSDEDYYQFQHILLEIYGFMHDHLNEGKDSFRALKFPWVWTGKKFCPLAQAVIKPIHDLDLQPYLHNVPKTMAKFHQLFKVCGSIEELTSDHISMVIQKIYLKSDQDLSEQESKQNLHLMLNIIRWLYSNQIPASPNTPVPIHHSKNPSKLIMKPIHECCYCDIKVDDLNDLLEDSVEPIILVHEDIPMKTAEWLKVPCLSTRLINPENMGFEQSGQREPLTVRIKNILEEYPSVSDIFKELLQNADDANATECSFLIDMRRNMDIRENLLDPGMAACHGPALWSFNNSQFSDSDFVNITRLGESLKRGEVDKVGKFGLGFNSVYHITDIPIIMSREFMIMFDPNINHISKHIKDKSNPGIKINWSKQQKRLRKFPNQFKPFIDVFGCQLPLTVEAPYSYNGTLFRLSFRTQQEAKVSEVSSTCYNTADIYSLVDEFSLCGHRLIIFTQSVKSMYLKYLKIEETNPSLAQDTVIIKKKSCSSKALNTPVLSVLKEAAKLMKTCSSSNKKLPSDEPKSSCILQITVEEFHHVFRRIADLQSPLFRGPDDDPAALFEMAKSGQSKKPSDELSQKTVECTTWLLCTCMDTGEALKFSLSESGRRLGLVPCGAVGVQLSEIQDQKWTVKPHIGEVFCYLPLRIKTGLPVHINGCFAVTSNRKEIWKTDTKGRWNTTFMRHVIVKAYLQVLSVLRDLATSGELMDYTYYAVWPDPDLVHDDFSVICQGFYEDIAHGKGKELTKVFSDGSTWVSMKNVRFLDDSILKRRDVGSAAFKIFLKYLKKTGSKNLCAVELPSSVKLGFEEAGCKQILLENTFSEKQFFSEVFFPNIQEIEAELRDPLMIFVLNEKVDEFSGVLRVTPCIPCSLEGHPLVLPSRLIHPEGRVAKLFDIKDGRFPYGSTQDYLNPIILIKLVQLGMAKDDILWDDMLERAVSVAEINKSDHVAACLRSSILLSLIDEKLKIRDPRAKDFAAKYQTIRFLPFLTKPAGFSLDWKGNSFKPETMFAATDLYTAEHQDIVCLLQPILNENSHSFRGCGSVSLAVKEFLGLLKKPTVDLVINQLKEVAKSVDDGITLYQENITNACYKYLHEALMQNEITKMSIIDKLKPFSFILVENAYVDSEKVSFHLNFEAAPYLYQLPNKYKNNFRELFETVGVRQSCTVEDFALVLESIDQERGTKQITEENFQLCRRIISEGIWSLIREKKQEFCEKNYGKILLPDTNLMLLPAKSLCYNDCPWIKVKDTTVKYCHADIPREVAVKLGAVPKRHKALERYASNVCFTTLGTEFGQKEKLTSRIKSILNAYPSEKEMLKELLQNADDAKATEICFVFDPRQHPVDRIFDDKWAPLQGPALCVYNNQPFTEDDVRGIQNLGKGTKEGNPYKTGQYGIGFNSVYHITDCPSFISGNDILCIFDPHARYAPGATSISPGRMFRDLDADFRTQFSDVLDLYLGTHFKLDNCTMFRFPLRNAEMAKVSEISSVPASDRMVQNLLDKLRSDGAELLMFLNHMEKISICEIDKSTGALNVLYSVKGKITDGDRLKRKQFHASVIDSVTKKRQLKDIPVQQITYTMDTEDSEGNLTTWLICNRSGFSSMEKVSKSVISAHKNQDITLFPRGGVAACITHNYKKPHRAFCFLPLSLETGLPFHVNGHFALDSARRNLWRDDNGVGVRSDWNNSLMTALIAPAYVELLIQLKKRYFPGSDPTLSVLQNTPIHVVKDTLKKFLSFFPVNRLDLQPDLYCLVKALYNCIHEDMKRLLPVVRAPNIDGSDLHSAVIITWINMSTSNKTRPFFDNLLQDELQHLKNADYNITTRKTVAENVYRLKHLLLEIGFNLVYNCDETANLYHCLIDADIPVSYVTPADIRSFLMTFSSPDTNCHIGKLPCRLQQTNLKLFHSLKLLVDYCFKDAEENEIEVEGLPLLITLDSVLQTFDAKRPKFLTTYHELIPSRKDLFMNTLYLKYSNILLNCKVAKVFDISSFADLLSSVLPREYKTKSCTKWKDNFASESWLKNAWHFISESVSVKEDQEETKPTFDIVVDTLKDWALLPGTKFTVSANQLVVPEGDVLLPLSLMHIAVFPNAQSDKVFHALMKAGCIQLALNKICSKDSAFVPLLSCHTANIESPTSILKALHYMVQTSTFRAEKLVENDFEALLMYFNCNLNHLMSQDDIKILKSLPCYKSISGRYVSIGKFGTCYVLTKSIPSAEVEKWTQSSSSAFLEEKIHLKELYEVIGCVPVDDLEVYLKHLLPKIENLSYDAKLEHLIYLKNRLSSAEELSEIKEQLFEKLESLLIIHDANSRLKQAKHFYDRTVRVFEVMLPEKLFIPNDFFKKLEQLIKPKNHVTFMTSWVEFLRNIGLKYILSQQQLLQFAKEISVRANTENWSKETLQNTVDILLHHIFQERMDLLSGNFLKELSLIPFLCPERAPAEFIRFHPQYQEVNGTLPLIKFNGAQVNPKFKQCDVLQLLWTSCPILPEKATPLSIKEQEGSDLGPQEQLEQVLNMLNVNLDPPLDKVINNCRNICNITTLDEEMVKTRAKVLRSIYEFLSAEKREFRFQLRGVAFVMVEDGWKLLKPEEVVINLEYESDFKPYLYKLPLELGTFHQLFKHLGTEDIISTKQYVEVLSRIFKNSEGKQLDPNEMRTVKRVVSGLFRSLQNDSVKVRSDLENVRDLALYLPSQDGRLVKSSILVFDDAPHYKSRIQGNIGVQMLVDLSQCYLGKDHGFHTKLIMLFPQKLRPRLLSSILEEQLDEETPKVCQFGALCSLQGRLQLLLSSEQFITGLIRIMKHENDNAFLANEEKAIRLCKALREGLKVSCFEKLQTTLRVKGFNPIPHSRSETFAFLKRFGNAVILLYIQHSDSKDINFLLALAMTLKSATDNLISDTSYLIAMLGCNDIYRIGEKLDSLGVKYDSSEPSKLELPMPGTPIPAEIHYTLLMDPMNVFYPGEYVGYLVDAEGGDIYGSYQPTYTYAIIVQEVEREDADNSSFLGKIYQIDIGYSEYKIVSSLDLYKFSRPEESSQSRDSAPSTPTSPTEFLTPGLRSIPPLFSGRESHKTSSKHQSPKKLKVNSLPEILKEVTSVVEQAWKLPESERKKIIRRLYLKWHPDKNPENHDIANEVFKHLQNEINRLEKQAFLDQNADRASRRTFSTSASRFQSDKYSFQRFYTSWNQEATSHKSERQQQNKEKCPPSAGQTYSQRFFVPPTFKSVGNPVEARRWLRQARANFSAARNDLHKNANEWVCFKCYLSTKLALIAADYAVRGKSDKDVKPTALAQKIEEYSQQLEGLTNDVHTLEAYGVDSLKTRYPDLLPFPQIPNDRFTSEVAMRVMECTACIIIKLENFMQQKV
UniProt Q9UFW8: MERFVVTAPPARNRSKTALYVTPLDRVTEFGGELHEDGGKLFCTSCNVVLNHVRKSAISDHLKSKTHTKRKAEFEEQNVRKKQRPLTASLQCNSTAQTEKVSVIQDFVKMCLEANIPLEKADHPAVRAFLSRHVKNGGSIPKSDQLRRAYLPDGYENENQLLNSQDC
UniProt Q9NWS6: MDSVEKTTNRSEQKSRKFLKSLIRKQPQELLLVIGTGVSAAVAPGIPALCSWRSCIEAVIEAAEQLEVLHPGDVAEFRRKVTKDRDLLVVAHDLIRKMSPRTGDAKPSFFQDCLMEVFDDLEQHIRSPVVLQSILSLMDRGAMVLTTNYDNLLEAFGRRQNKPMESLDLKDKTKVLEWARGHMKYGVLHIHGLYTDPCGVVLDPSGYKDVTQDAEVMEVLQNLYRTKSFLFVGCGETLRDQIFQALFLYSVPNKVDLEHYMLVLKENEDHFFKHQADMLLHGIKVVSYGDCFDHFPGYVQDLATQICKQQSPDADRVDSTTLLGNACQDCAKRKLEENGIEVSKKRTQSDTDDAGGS
UniProt Q9NX55: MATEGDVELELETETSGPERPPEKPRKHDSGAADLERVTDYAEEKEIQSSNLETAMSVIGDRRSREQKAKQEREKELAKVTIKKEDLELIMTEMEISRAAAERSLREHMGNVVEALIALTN
UniProt Q9NV56, whole entry: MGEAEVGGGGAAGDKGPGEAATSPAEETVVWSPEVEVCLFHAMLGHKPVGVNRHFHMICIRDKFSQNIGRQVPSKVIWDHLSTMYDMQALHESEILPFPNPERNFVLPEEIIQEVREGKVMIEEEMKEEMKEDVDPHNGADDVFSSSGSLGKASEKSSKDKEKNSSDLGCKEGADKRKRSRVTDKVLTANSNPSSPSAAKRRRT
UniProt Q9UBI1, whole entry: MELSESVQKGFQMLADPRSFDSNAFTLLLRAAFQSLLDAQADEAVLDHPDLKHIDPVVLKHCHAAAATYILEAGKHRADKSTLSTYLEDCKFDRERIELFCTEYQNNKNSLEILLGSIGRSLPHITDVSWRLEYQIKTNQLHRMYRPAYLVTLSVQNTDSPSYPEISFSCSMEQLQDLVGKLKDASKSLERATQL
UniProt Q9P000, whole entry: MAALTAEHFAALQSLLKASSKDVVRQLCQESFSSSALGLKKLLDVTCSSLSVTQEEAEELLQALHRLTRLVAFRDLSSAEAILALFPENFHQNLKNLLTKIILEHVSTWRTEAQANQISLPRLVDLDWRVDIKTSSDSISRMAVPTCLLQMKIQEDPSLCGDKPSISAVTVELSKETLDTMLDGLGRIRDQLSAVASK

The targets below were run with Nc1nc2c(ncn2[C@@H]2O[C@H](COP(=O)(O)OP(=O)(O)OP(=O)(O)O)[C@@H](O)[C@H]2O)c(=O)[nH]1 [guanosine triphosphate] (assay: NP40-soluble protein abundance relative to vehicle (solubility fold change) (ratio); higher = more soluble protein in presence of GTP). Conditions: concentration: 2mM.
Summary of the method: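 Jurkat crude lysate prepared with a Dounce homogeniser was treated at eight concentrations spanning 0.1 to 10 mM, 10 min at room temperature then 3 min at 37 °C. Solubilisation with 0.8% NP40 and benzonase and ultracentrifugation preceded TMT labelling of the supernatant for LC-MS/MS. Fold change against the detergent-processed vehicle was determined per replicate from vsn-normalised intensities, across three independent experiments.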
With TPX2 (UniProt Q9ULW0) the NP40-soluble protein abundance was 1.21 ± 0.094.
Work on MRPL39 (UniProt Q9NYK5) yielded an NP40-soluble protein abundance of 1.35 ± 0.33.
UniProt Q9ULH0 and related entries showed an NP40-soluble protein abundance of 1.33 ± 0.47.
Work on UniProt Q9NZJ4 and related entries yielded an NP40-soluble protein abundance of 1.06 ± 0.13.
With CFDP1 (UniProt Q9UEE9) the NP40-soluble protein abundance was 0.882 ± 0.18.
Work on CDV3 (UniProt Q9UKY7) yielded an NP40-soluble protein abundance of 0.955 ± 0.11.
For CGGBP1 (UniProt Q9UFW8), the NP40-soluble protein abundance was 1.04 ± 0.048.
PLXNA1 (UniProt Q9UIW2) was tested, and the NP40-soluble protein abundance was 1.07 ± 0.081.
CDC23 (UniProt Q9UJX2) was tested, and the NP40-soluble protein abundance was 1.21 ± 0.23.
In the case of FAM118A (UniProt Q9NWS6), the NP40-soluble protein abundance is reported as 0.934 ± 0.11.
UniProt Q9UBL3 and related entries was tested, and the NP40-soluble protein abundance was 1.027 ± 0.0092.
Work on UniProt Q9NXR5 and related entries yielded an NP40-soluble protein abundance of 1.02 ± 0.034.
With UniProt Q9NY12 and related entries the NP40-soluble protein abundance was 1.34 ± 0.15.
UniProt Q9UJX5 and related entries showed an NP40-soluble protein abundance of 1.27 ± 0.23.
With FASTKD2 (UniProt Q9NYY8) the NP40-soluble protein abundance was 0.959 ± 0.054.
UniProt Q9UH92 and related entries gave an NP40-soluble protein abundance of 1.07 ± 0.17.
For MTPAP (UniProt Q9NVV4), the NP40-soluble protein abundance was 1.18 ± 0.077.
Work on UniProt Q9NX55 yielded an NP40-soluble protein abundance of 0.995 ± 0.073.
In the case of UniProt Q9UIV1 and related entries, the NP40-soluble protein abundance is reported as 1.16 ± 0.27.
With UniProt Q9NV56 the NP40-soluble protein abundance was 1.05 ± 0.048.
With UniProt Q9NUQ9 and related entries the NP40-soluble protein abundance was 0.886 ± 0.095.
With UniProt Q9UBI1 and related entries the NP40-soluble protein abundance was 0.987 ± 0.064.
In the case of CPSF2 (UniProt Q9P2I0), the NP40-soluble protein abundance is reported as 1.16 ± 0.087.
UniProt Q9NUQ3 was tested, and the NP40-soluble protein abundance was 0.937 ± 0.073.
CHMP5 (UniProt Q9NZZ3) was tested, and the NP40-soluble protein abundance was 0.943 ± 0.018.
Work on COMMD9 (UniProt Q9P000) yielded an NP40-soluble protein abundance of 0.96 ± 0.057.
In the case of “UniProt Q9UK53-2|A0A0C4DFW2|Q9UK53 and related entries”, the NP40-soluble protein abundance is reported as 1.11 ± 0.16.
